PubChem BioAssay AID504793 | Drosophila RNAi Screening Center – 2011
Purpose: 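Whole-genome screen for parts of the DNA damage checkpoint at G2/M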 (primary screen). Cells: Drosophila S2R+ cells. Knock-down reagent: long dsRNA against Drosophila genes, about 0.25 µg dsRNA per well. Duration: 4 days of dsRNA, then 4 hours of drug before read-out. Challenge: doxorubicin 0.5 µM for 4 hours to cause double-strand breaks, in cells also given a low, harmless dose of dsRNA against nbs to sensitise the assay. Measured: 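Mitotic index as the number of phospho-histone H3-positive cells in each well following doxorubicin, given as raw counts without normalisation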. Direction: mitotic cells: higher = more cells in mitosis, weaker G2 arrest. Rule for the call: 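a call needs confirmation in secondary tests, with other dsRNAs and a check of mitotic timing without damage, not just a high primary count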. Calls: active = confirmed in follow-up tests; inactive = not confirmed.
In all, the deposit lists about 23,000 reagents; this is a random part of those with a known target gene and a result. Over the whole deposit, 62 (0.27%) were called active. 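Calls come from follow-up tests whose scores are not deposited, so confirmed genes may have low counts here; counts are not normalised per plate.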 Raw values vary from plate to plate and are shown uncorrected. Reagents against one gene are numbered here. A plus sign joins genes that one reagent is predicted to hit.

predicted target | reagent no. | mitotic cells, replicate 1 | Call
Prx1 | 1 | 3 | inactive
Prx1 | 2 | 2 | inactive
CG30037 | 1 | 3 | inactive
asRNA:Eig63F-2 + Eip63F-1 | 1 | 9 | inactive
CG8910 | 1 | 9 | inactive
CG8910 | 2 | 7 | inactive
CG15545 | 1 | 17 | inactive
CG15545 | 2 | 6 | inactive
CG7791 | 1 | 9 | inactive
ACXD | 1 | 5 | inactive
ACXD | 2 | 1 | inactive
RpL12 | 1 | 10 | inactive
maf-S | 1 | 7 | inactive
CG12853 | 1 | 5 | inactive
CG12853 | 2 | 11 | inactive
eys | 1 | 3 | inactive
eys | 2 | 5 | inactive
eys | 3 | 5 | inactive
bchs | 1 | 6 | inactive
Gbeta13F | 1 | 5 | inactive
CG42583 | 1 | 10 | inactive
CG42583 | 2 | 3 | inactive
CG4367 | 1 | 5 | inactive
yip2 | 1 | 6 | inactive
CG6415 | 1 | 6 | inactive
CG6415 | 2 | 7 | inactive
CG30432 | 1 | 5 | inactive
CG32453 | 1 | 5 | inactive
Or43a | 1 | 4 | inactive
Ugt37C2 | 1 | 8 | inactive
MED11 | 1 | 21 | inactive
MED11 | 2 | 19 | inactive
Coprox | 1 | 8 | inactive
Coprox | 2 | 6 | inactive
nwk | 1 | 9 | inactive
tefu | 1 | 8 | inactive
CG11788 | 1 | 4 | inactive
Tdh | 1 | 4 | inactive
link | 1 | 4 | inactive
link | 2 | 6 | inactive
Hacd1 | 1 | 4 | inactive
CG16976 (retired record) | 1 | 7 | inactive
CG16976 (retired record) | 2 | 4 | inactive
CG16976 (retired record) | 3 | 4 | inactive
EMC10 | 1 | 4 | inactive
CG16995 | 1 | 7 | inactive
Coq4 + Gorab + frc | 1 | 5 | inactive
CG14177 (retired record) | 1 | 5 | inactive
CG14177 (retired record) | 2 | 10 | inactive
TyrRS | 1 | 11 | inactive
TyrRS | 2 | 12 | inactive
danr | 1 | 8 | inactive
danr | 2 | 4 | inactive
CG14069 | 1 | 7 | inactive
Gbs-76A | 1 | 8 | inactive
SmydA-1 | 1 | 9 | inactive
ctp | 1 | 17 | inactive
ctp | 2 | 11 | inactive
rtet | 1 | 7 | inactive
CG12126 | 1 | 8 | inactive
CG45067 | 1 | 8 | inactive
CG45067 | 2 | 7 | inactive
Mtp | 1 | 6 | inactive
EloC | 1 | 2 | inactive
EloC | 2 | 1 | inactive
Ir84a | 1 | 4 | inactive
Ir84a | 2 | 7 | inactive
CG13004 | 1 | 10 | inactive
yata | 1 | 8 | inactive
Icmt | 1 | 2 | inactive
CG33284 | 1 | 9 | inactive
CG33284 | 2 | 6 | inactive
CSN1a | 1 | 6 | inactive
kon | 1 | 5 | inactive
Drak | 1 | 21 | inactive
Drak | 2 | 10 | inactive
Drak | 3 | 14 | inactive
CR14798 | 1 | 14 | inactive
PAPLA1 | 1 | 2 | inactive
PAPLA1 | 2 | 7 | inactive
CG7298 | 1 | 7 | inactive

Next part; the last 8 above are carried over.
predicted target | reagent no. | mitotic cells, replicate 1 | Call
kon | 1 | 5 | inactive
Drak | 1 | 21 | inactive
Drak | 2 | 10 | inactive
Drak | 3 | 14 | inactive
CR14798 | 1 | 14 | inactive
PAPLA1 | 1 | 2 | inactive
PAPLA1 | 2 | 7 | inactive
CG7298 | 1 | 7 | inactive
Ir7f | 1 | 7 | inactive
CG18180 | 1 | – | inactive
CG18180 | 2 | 11 | inactive
inaF-B + inaF-D + inaF-C + 1 more | 1 | 15 | inactive
inaF-B + inaF-D + inaF-C + 1 more | 2 | 3 | inactive
CG34435 | 1 | 8 | inactive
CG12817 | 1 | 7 | inactive
CG6362 | 1 | 8 | inactive
CG6362 | 2 | 8 | inactive
sqh | 1 | 5 | inactive
sqh | 2 | 4 | inactive
CG44014 | 1 | 1 | inactive
CG44014 | 2 | 5 | inactive
eloF | 1 | 5 | inactive
eloF | 2 | 9 | inactive
CG9777 | 1 | 11 | inactive
CG1344 | 1 | 2 | inactive
CG12895 | 1 | 5 | inactive
CG12895 | 2 | 5 | inactive
CG1090 | 1 | 8 | inactive
CG1090 | 2 | 19 | inactive
CG13924 | 1 | 9 | inactive
CG14841 | 1 | 4 | inactive
CG14841 | 2 | 1 | inactive
Art7 | 1 | – | inactive
Art7 | 2 | 2 | inactive
CG30447 | 1 | 3 | inactive
CG30031 + deltaTry + gammaTry | 1 | 4 | inactive
Ir67b | 1 | 3 | inactive
Mfe2 | 1 | 8 | inactive
RpL3 + CG6693 | 1 | 2 | inactive
slpr | 1 | 2 | inactive
slpr | 2 | 10 | inactive
ich | 1 | 2 | inactive
ich | 2 | 7 | inactive
Snmp1 | 1 | 8 | inactive
RpLP0 | 1 | 7 | inactive
RpLP0 | 2 | 18 | inactive
ND-24L | 1 | 6 | inactive
ND-24L | 2 | 4 | inactive
vilya | 1 | 12 | inactive
CG5376 | 1 | 11 | inactive
CG5376 | 2 | 2 | inactive
CG32432 | 1 | 3 | inactive
CR18275 + CR18166 + CG32817 | 1 | 9 | inactive
CG8321 | 1 | 5 | inactive
lap | 1 | 9 | inactive
lap | 2 | 5 | inactive
RpL35 | 1 | 11 | inactive
alphaKap4 | 1 | 6 | inactive
CG4972 | 1 | 6 | inactive
Art6 | 1 | 2 | inactive
CG12147 | 1 | 3 | inactive
CG12147 | 2 | 10 | inactive
VhaAC45RP | 1 | 8 | inactive
VhaAC45RP | 2 | 2 | inactive
Jon44E | 1 | 11 | inactive
Jon44E | 2 | 4 | inactive
Exo70 | 1 | 6 | inactive
